Laboratory results published in publication PMC5688089.
No constants are given. Whether binding was seen depends on the method and setting. Binding seen in cells or lysates may run through a third protein. Some results given as binding are weak or reduced against the parent protein; the word gives no strength.

Target: T1, RANK (receptor activator of NF-κB) (mouse (endogenous in BMMs)) (UniProt O35305)
T1 sequence: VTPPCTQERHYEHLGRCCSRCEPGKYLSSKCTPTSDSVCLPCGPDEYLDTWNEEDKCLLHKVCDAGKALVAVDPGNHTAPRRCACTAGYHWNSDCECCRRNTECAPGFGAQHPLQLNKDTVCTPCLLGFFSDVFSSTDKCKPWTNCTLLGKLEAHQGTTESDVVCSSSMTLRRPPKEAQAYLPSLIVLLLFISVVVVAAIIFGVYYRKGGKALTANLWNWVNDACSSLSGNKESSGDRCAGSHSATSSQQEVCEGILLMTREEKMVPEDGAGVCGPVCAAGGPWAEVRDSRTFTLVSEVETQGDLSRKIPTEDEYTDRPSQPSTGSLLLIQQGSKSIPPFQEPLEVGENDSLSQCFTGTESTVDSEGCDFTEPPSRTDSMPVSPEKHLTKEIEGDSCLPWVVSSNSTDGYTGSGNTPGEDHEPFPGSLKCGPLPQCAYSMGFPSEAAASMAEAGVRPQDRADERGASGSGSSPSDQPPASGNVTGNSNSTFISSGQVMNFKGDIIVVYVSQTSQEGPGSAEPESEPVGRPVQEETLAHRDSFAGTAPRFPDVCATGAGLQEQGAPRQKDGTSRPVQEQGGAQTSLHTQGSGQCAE
Assay: co-IP; endogenous proteins from lysates of mouse BMMs (WT or DJ-1 KO) starved 5 h and stimulated with RANKL (100 ng/ml), with or without H2O2 (100 μM); lysis in 20 mM HEPES pH 7.5, 150 mM NaCl, 1% Nonidet P-40, 60 mM octyl β-glucoside; overnight at 4 °C with specific antibodies, protein A/G-agarose; immunoblot

binding: binds
B1: TNF receptor-associated factor 6 (TRAF6) (protein, UniProt P70196 1-530)
chain: MSLLNCENSCGSSQSSSDCCAAMAASCSAAVKDDSVSGSASTGNLSSSFMEEIQGYDVEFDPPLESKYECPICLMALREAVQTPCGHRFCKACIIKSIRDAGHKCPVDNEILLENQLFPDNFAKREILSLTVKCPNKGCLQKMELRHLEDHQVHCEFALVNCPQCQRPFQKCQVNTHIIEDCPRRQVSCVNCAVSMAYEEKEIHDQSCPLANIICEYCGTILIREQMPNHYDLDCPTAPIPCTFSVFGCHEKMQRNHLARHLQENTQLHMRLLAQAVHNVNLALRPCDAASPSRGCRPEDPNYEETIKQLESRLVRQDHQIRELTAKMETQSMYVGELKRTIRTLEDKVAEMEAQQCNGIYIWKIGNFGMHLKSQEEERPVVIHSPGFYTGRPGYKLCMRLHLQLPTAQRCANYISLFVHTMQGEYDSHLPWPFQGTIRLTILDQSEALIRQNHEEVMDAKPELLAFQRPTIPRNPKGFGYVTFMHLEALRQGTFIKDDTLLVRCEVSTRFDMGGLRKEGFQPRSTDAGV
